This is one part of the list.

The chains behind the UniProt entries cited, without tags or fusion partners. Where a name states a change or a piece, a line headed by the entry shows the natural chain unless it says otherwise.
UniProt O00429, whole entry, looked up: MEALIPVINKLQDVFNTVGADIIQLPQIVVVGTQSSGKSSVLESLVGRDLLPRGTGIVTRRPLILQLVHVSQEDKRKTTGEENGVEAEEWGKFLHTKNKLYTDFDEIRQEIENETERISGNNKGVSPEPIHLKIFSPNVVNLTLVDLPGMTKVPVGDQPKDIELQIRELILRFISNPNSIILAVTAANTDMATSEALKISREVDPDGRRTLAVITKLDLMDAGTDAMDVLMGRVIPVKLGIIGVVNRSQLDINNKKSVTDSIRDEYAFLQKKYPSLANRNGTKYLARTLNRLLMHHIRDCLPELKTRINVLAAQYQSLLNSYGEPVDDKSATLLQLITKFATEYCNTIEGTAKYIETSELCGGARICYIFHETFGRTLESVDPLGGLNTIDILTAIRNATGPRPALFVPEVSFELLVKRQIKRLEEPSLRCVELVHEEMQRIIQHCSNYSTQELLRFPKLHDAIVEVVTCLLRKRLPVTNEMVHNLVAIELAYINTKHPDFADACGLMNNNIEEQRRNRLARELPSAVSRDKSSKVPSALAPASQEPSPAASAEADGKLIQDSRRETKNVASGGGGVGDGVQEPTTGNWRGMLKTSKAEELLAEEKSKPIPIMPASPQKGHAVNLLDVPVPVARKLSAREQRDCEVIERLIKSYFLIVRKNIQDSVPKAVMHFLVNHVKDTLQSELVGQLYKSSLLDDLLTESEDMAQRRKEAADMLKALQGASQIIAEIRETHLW
UniProt Q5JSL3: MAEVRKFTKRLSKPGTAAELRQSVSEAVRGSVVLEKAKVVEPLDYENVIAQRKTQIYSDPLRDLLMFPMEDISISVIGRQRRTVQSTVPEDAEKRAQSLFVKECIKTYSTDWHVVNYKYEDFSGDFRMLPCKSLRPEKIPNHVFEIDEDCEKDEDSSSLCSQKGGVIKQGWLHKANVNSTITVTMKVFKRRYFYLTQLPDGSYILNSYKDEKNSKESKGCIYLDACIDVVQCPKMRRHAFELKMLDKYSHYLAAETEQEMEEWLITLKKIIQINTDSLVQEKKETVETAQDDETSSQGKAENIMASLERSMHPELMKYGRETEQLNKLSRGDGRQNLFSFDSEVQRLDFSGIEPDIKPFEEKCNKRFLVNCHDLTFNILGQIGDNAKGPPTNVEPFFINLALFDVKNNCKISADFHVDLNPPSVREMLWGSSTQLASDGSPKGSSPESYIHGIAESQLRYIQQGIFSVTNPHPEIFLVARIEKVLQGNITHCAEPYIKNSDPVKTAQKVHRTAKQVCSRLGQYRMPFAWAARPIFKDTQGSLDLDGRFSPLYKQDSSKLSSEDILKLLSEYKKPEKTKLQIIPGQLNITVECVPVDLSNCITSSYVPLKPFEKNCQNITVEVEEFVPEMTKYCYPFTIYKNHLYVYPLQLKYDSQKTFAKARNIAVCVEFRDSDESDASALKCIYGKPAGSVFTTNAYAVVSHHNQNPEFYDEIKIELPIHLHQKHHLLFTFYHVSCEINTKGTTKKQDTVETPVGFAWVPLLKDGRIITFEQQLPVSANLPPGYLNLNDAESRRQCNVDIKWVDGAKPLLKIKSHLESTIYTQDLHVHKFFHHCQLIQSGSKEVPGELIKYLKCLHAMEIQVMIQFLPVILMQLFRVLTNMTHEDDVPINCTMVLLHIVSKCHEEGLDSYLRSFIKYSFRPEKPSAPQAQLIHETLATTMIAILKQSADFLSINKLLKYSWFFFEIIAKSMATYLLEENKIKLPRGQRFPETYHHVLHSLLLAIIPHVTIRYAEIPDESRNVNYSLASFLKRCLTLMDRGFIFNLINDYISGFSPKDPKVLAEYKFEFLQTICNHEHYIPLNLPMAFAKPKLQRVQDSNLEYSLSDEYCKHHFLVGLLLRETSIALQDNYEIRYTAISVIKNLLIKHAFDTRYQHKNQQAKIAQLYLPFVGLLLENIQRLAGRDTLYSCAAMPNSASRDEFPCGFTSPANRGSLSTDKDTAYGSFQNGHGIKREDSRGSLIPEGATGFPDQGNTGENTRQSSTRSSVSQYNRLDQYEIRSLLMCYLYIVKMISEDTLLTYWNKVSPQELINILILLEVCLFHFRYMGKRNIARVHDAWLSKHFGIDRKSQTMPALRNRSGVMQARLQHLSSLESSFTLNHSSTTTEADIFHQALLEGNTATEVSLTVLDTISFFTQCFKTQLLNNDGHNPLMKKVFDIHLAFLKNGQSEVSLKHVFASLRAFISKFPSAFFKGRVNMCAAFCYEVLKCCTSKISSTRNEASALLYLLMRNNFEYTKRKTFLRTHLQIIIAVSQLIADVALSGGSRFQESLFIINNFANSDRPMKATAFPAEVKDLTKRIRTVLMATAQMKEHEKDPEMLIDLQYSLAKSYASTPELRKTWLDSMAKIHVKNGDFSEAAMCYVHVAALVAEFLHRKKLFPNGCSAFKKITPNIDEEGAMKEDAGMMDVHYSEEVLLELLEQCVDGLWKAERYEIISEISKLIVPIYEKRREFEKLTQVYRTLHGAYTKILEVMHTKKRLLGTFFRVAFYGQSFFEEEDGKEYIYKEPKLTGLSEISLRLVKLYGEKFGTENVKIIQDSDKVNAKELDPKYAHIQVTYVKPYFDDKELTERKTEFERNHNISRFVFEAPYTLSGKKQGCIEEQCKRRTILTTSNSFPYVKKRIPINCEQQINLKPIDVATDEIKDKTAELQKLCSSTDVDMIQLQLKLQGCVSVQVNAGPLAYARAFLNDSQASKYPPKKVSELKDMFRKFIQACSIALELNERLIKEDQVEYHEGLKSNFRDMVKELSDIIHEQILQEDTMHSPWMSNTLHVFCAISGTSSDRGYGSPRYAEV
UniProt P63172, whole entry, looked up: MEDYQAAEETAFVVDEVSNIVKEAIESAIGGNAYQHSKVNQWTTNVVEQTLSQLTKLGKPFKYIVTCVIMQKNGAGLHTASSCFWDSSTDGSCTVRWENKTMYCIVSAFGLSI
UniProt O75061: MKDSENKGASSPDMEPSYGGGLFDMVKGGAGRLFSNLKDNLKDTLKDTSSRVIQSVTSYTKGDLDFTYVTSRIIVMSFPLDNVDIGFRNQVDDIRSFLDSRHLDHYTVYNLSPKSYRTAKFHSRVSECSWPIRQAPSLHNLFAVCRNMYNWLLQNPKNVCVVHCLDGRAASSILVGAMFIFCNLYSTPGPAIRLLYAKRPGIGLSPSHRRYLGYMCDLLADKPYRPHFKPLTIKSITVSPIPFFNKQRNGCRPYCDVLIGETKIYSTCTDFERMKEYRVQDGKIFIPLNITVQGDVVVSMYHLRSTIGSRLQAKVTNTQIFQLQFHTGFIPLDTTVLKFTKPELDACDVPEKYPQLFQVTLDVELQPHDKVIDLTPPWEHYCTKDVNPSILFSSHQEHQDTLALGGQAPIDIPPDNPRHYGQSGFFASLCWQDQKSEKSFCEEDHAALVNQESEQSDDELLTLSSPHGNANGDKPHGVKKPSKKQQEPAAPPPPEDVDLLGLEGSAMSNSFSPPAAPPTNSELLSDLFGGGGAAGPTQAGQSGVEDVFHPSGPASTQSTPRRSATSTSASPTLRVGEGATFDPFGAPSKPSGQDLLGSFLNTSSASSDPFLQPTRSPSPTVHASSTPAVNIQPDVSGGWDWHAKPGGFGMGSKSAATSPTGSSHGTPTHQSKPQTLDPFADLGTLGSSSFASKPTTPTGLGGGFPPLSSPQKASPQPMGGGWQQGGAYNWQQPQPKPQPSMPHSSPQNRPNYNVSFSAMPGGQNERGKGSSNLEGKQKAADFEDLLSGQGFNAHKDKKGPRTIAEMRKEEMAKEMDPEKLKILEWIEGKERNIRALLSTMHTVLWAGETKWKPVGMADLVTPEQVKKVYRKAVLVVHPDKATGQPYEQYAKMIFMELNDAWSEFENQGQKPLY
UniProt Q8TEA8: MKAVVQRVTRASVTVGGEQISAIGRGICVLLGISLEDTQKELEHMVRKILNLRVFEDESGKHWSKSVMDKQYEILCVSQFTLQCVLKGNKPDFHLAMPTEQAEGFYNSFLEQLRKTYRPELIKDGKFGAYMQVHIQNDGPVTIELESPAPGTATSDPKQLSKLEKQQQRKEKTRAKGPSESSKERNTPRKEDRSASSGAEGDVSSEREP
UniProt Q96DA6: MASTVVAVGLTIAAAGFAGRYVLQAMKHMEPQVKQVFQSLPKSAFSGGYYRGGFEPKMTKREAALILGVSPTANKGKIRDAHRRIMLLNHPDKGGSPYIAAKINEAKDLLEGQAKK
UniProt Q15075: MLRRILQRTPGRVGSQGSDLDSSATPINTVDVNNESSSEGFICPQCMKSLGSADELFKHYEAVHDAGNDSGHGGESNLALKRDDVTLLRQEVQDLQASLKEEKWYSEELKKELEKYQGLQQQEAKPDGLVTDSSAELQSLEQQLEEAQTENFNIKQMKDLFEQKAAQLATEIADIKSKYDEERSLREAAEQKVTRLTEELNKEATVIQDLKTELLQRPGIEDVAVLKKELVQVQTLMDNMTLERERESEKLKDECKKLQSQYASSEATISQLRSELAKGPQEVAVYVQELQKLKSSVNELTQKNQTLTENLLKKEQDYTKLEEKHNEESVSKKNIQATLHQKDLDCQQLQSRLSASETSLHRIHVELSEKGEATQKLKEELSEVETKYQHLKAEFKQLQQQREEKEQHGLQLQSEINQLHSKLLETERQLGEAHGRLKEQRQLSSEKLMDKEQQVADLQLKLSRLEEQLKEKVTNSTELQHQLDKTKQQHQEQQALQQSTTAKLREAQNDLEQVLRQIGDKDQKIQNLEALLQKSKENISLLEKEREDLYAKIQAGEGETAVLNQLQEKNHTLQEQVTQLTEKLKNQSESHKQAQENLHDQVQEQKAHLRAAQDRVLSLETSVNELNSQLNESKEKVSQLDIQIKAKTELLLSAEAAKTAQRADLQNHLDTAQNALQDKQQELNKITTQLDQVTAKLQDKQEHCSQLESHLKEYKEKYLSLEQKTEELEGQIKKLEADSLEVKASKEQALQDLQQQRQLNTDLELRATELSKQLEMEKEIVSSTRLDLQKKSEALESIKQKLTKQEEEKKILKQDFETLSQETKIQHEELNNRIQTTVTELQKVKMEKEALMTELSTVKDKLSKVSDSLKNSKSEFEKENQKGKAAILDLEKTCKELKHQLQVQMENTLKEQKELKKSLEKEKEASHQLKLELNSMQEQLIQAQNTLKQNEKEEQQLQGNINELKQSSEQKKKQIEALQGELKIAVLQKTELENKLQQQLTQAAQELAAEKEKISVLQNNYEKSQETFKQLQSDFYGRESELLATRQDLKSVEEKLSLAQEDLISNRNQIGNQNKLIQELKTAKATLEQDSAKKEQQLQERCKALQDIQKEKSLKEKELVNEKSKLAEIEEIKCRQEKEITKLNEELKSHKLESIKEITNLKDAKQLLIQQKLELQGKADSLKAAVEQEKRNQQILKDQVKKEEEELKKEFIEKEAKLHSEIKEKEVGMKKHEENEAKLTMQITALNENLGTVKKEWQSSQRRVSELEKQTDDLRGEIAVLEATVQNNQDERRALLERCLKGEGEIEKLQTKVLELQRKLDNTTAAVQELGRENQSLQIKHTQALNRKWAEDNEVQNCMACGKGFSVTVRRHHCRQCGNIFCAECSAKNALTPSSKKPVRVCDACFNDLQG
UniProt Q8N5C7: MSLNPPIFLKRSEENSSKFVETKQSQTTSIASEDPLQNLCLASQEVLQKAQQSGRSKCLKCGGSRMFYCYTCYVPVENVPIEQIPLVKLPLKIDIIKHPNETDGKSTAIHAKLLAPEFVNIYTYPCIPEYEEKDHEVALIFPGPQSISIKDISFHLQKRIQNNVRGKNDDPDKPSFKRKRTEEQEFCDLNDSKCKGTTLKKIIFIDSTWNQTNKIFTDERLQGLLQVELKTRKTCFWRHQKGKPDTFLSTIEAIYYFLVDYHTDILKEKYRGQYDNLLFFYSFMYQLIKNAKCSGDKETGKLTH
UniProt Q7Z388: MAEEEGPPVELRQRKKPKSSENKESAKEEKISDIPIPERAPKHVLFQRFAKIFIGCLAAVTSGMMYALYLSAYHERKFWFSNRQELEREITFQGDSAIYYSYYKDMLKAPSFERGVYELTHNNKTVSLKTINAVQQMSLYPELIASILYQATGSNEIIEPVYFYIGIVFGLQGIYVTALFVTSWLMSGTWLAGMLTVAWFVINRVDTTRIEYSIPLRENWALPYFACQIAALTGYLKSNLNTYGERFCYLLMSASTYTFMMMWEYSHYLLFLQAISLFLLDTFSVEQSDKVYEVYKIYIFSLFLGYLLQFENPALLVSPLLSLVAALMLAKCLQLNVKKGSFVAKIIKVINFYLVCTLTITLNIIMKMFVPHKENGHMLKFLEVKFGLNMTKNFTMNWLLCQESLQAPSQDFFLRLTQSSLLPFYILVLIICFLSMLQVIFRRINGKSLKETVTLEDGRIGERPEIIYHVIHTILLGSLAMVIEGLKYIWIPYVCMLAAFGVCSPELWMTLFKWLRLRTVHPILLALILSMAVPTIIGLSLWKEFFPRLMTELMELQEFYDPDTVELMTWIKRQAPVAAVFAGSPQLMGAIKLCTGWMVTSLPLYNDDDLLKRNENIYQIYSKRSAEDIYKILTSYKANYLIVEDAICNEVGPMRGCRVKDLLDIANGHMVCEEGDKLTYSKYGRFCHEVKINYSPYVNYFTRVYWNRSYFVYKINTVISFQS

Compound in the first assay: Cc1sc2c(c1C)C(c1ccc(Cl)cc1)=N[C@@H](CC(=O)OC(C)(C)C)c1nnc(C)n1-2
The assay can be described thus: log2 fold change, soluble protein after heating vs DMSO (PISA); higher = thermal stabilisation; K562 cells, 10 uM, 30 min; active = over 0.2 and 3.5 SD of the protein, either way, in both replicates (recomputed). Summed up:
(§1)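 K562 cells at 2×10^6 cells/mL were treated for 30 min with 10 μM compound, and aliquots were heated for 3 min over 48°C-58°C before pooling. Extraction used PBS with 0.5% NP-40 at 4°C, and soluble protein was the supernatant after 21,000xg for 90 min, measured by TMTpro 16plex LC-MS/MS with channel sums equalised. Thermal stability values, relative to control samples and from duplicates, are log2 fold changes.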
Take DTYMK (UniProt P23919): the log2 fold change is inactive: -0.003.

Turning to EDF1 (UniProt O60869), the log2 fold change is inactive: -0.011.

DNAJC24 (UniProt Q6P3W2): the log2 fold change is inactive: -0.002.

Regarding DPF2 (UniProt Q92785), the log2 fold change was inactive: 0.012.

DPH6 (UniProt Q7L8W6): the log2 fold change is inactive: 0.003.

As for DNM1L isoform 2 (UniProt O00429), the log2 fold change is inactive: 0.

Turning to DNAJA3 (UniProt Q96EY1), the log2 fold change is inactive: 0.065.

For the target DSC2 (UniProt Q02487), the log2 fold change was inactive: 0.025.

As for DNAJB12 (UniProt Q9NXW2), the log2 fold change is inactive: -0.011.

As for DOCK11 (UniProt Q5JSL3), the log2 fold change is inactive: 0.02.

As for DTWD2 (UniProt Q8NBA8), the log2 fold change was inactive: 0.043.

For the target E2F3 (UniProt O00716), the log2 fold change was inactive: -0.005.

For DYNLT1 (UniProt P63172), the log2 fold change is inactive: 0.06.

Take DNAJC6 isoform 2 (UniProt O75061): the log2 fold change was inactive: -0.016.

As to DRG2 (UniProt P55039), the log2 fold change was inactive: -0.024.

Turning to DOCK9 isoform 4 (UniProt Q9BZ29), the log2 fold change was inactive: 0.

In the case of DTD1 (UniProt Q8TEA8), the log2 fold change is inactive: -0.033.

With DNAJC12 (UniProt Q9UKB3), the log2 fold change is inactive: 0.018.

Regarding DNAJB14 (UniProt Q8TBM8), the log2 fold change is inactive: -0.067.

Consider DNAJC17 (UniProt Q9NVM6), for which the log2 fold change was inactive: 0.013.

Regarding DNAJB11 (UniProt Q9UBS4), the log2 fold change is inactive: 0.042.

As for DRAP1 isoform 2 (UniProt Q14919), the log2 fold change was inactive: -0.006.

Take DNAJC19 (UniProt Q96DA6): the log2 fold change was inactive: 0.

Take DNLZ (UniProt Q5SXM8): the log2 fold change was inactive: 0.004.

As for EDC4 (UniProt Q6P2E9), the log2 fold change is inactive: 0.023.

With EEA1 (UniProt Q15075), the log2 fold change is inactive: 0.021.

Consider DNPH1 (UniProt O43598), for which the log2 fold change is inactive: -0.039.

For the target DPH2 (UniProt Q9BQC3), the log2 fold change is inactive: -0.004.

With EBAG9 isoform 2 (UniProt O00559), the log2 fold change is inactive: -0.058.

Consider DYNC1LI1 (UniProt Q9Y6G9), for which the log2 fold change was inactive: -0.002.

Turning to DTWD1 (UniProt Q8N5C7), the log2 fold change was inactive: -0.056.

As to DPY19L1, A0A1B0GW05, the log2 fold change is inactive: -0.092.

Regarding E4F1 (UniProt Q66K89), the log2 fold change is inactive: 0.17.

For DOK3 (UniProt Q7L591), the log2 fold change is inactive: -0.091.

As for DYM (UniProt Q7RTS9), the log2 fold change was inactive: -0.06.

Turning to DPY19L4 (UniProt Q7Z388), the log2 fold change was inactive: 0.043.

Take DSTN (UniProt P60981): the log2 fold change was inactive: 0.005.

For DPYSL2 (UniProt Q16555), the log2 fold change was inactive: 0.01.

For EDC3 (UniProt Q96F86), the log2 fold change is inactive: 0.063.

Compound in another assay: c1ccc([C@@H]2C[C@H]2NC2CCNCC2)cc1
Described as above. Summed up:
as §1
Consider DTYMK (UniProt P23919), for which the log2 fold change is inactive: -0.014.

For EDF1 (UniProt O60869), the log2 fold change is inactive: 0.018.

Take DNAJC24 (UniProt Q6P3W2): the log2 fold change was inactive: 0.054.

With DPF2 (UniProt Q92785), the log2 fold change was inactive: 0.075.

Consider DPH6 (UniProt Q7L8W6), for which the log2 fold change was inactive: -0.076.

For the target DNM1L isoform 2 (UniProt O00429), the log2 fold change is inactive: 0.015.

In the case of DNAJA3 (UniProt Q96EY1), the log2 fold change is inactive: -0.054.

For the target DSC2 (UniProt Q02487), the log2 fold change is inactive: -0.04.

Regarding DNAJB12 (UniProt Q9NXW2), the log2 fold change was inactive: 0.011.

Take DOCK11 (UniProt Q5JSL3): the log2 fold change is inactive: -0.004.

As to DTWD2 (UniProt Q8NBA8), the log2 fold change is inactive: -0.036.

For E2F3 (UniProt O00716), the log2 fold change was inactive: 0.08.

For the target DYNLT1 (UniProt P63172), the log2 fold change is inactive: -0.104.

As to DNAJC6 isoform 2 (UniProt O75061), the log2 fold change is inactive: 0.034.

For the target DRG2 (UniProt P55039), the log2 fold change was inactive: -0.023.

Turning to DOCK9 isoform 4 (UniProt Q9BZ29), the log2 fold change was inactive: 0.08.

With DTD1 (UniProt Q8TEA8), the log2 fold change was inactive: 0.018.

Take DNAJC12 (UniProt Q9UKB3): the log2 fold change was inactive: 0.039.

For DNAJB14 (UniProt Q8TBM8), the log2 fold change was inactive: -0.077.

For the target DNAJC17 (UniProt Q9NVM6), the log2 fold change was inactive: -0.005.

Take DNAJB11 (UniProt Q9UBS4): the log2 fold change is inactive: 0.041.

Take DRAP1 isoform 2 (UniProt Q14919): the log2 fold change was inactive: 0.01.

Regarding DNAJC19 (UniProt Q96DA6), the log2 fold change was inactive: -0.041.

For the target DNLZ (UniProt Q5SXM8), the log2 fold change was inactive: 0.023.

Take EDC4 (UniProt Q6P2E9): the log2 fold change is inactive: 0.024.

On to EEA1 (UniProt Q15075), for which the log2 fold change is inactive: 0.038.

Consider DNPH1 (UniProt O43598), for which the log2 fold change is inactive: -0.027.

Take DPH2 (UniProt Q9BQC3): the log2 fold change is inactive: -0.031.

On to EBAG9 isoform 2 (UniProt O00559), for which the log2 fold change is inactive: 0.06.

For DYNC1LI1 (UniProt Q9Y6G9), the log2 fold change was inactive: -0.015.

Take DTWD1 (UniProt Q8N5C7): the log2 fold change was inactive: 0.07.

Consider DPY19L1, A0A1B0GW05, for which the log2 fold change is inactive: 0.074.

With E4F1 (UniProt Q66K89), the log2 fold change was inactive: 0.072.

Take DOK3 (UniProt Q7L591): the log2 fold change was inactive: 0.012.

As for DYM (UniProt Q7RTS9), the log2 fold change is inactive: -0.052.

Take DPY19L4 (UniProt Q7Z388): the log2 fold change was inactive: 0.133.

Regarding DSTN (UniProt P60981), the log2 fold change was inactive: -0.002.

For DPYSL2 (UniProt Q16555), the log2 fold change was inactive: 0.014.

With EDC3 (UniProt Q96F86), the log2 fold change was inactive: 0.026.

The values above are taken from the supplement of paper PMC10849652.
